At least one structure is not confirmed: it was looked up by name or label, or the drawing left a doubt.
System: hCAR
Experiment: Ad/EYFP-hCAR translocation assay in HPH
Type: cell-based, human
Settings: Ad-EYFP-hCAR-infected HPH; DL7076 10 μM, PB 1 mM
Description: HPH were seeded on collagen-coated 12-well plates. 24 hours after seeding, HPH were infected with Ad/EYFP-hCAR at a concentration of 5 μL/mL of media and incubated overnight. HPH infected cells were treated with a vehicle control (DMSO 0.01%), a positive control (1 mM PB), and compounds of interest for 8 h. Fluorescence was viewed using the YFP channel (Nikon Eclipse Ti) and quantified by identifying the number of total cells expressing EYFP-hCAR over EYFP-hCAR present in the nucleus. Representative images are shown, and quantitative data represents the mean±SD of 3 individual images for each treatment group.

CCC1(c2ccccc2)C(=O)NC(=O)NC1=O [PB, Phenobarbital, reference compound]
EYFP-hCAR nuclear translocation: Efficient Ad-EYFP-hCAR translocation into the nucleus

Source: patent US20230134760A1, “CAR AND NRF2 DUAL ACTIVATOR AGENTS FOR CYCLOPHOSPHAMIDE-BASED AND DOXORUBICIN-BASED TREATMENTS OF CANCER” (priority 2020, published 2023)
